Record: PubChem BioAssay AID1259308 (NCATS, 2017)
Purpose: 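Candidate targets for better recombinant protein yield in mammalian cells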 (primary screen). System: human HEK293 embryonic kidney cells stably expressing firefly luciferase (HEK-CMV-Luc2-Hygro). Knock-down reagent: single siRNA against human genes, 0.8 pmol siRNA per well. Duration: 72 h. Detection: 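Reporter luminescence and viable-cell signal on separate replicate plates, given as percent of non-targeting control and median/MAD z-scores, plus per-cell luciferase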. Scale: total luciferase, z-score and total luciferase, % of control: higher = more reporter protein produced; luciferase per cell, z-score: higher = more reporter output per viable cell. Rule for the call: 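An siRNA counts as active if its total luciferase robust z-score exceeds 3; genes with two or more such siRNAs out of three were retested with fresh siRNAs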. Calls: active = raised luciferase; inactive = no rise.
In all, the deposit lists about 59,000 reagents; shown is a part drawn at random. Of all reagents, about 1,510 (2.6%) got an active call. 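Calls use total luciferase alone and ignore viability, so some active siRNAs may act by altering cell number.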 The numbers tell different reagents against one gene apart. Further read-outs or replicates are left out here.

| gene | siRNA no. | total luciferase, z-score | total luciferase, % of control | luciferase per cell, z-score | Call |
| --- | --- | --- | --- | --- | --- |
| KRTAP5-7 | 1 | 0.326 | 88.4 | 1.25 | inactive |
| KRTAP5-7 | 2 | -0.518 | 71.6 | -0.771 | inactive |
| KRTAP5-7 | 3 | -0.309 | 75.7 | -0.93 | inactive |
| TRMU | 1 | 0.396 | 89.8 | -0.015 | inactive |
| TRMU | 2 | 0.163 | 85.1 | 0.966 | inactive |
| TRMU | 3 | 0.942 | 101 | 1.24 | inactive |
| TMEM121B | 1 | -0.0461 | 81 | 1.66 | inactive |
| TMEM121B | 2 | -3.02 | 21.9 | -1.98 | inactive |
| TMEM121B | 3 | -2.97 | 22.9 | -1.67 | inactive |
| ATMIN | 1 | 0.0409 | 82.7 | 0.378 | inactive |
| ATMIN | 2 | -0.509 | 71.8 | -0.576 | inactive |
| ATMIN | 3 | 0.96 | 101 | 0.386 | inactive |
| MROH7 | 1 | 0.195 | 85.8 | 0.00475 | inactive |
| MROH7 | 2 | -0.921 | 63.6 | -0.6 | inactive |
| MROH7 | 3 | -0.393 | 74.1 | 0.0552 | inactive |
| ROCK1P1 | 1 | 0.292 | 87.7 | -0.497 | inactive |
| ROCK1P1 | 2 | 3.27 | 147 | 2.66 | active |
| ROCK1P1 | 3 | -1.81 | 45.8 | -2.06 | inactive |
| DCAF1 | 1 | -1.35 | 55.1 | -0.466 | inactive |
| DCAF1 | 2 | 0.0934 | 83.7 | 1.88 | inactive |
| DCAF1 | 3 | 0.0629 | 83.1 | 0.43 | inactive |
| UBA1 | 1 | 0.0722 | 83.3 | 0.0425 | inactive |
| UBA1 | 2 | 0.289 | 87.6 | -0.207 | inactive |
| UBA1 | 3 | -0.637 | 69.2 | -0.694 | inactive |
| FARSA | 1 | 0.229 | 86.4 | 0.227 | inactive |
| FARSA | 2 | 0.206 | 86 | -0.258 | inactive |
| FARSA | 3 | 0.641 | 94.6 | 0.00873 | inactive |
| NUDCD1 | 1 | -0.198 | 78 | -0.182 | inactive |
| NUDCD1 | 2 | 3.13 | 144 | 1.77 | active |
| NUDCD1 | 3 | -0.593 | 70.1 | -0.926 | inactive |
| ZNF581 | 1 | 0.00881 | 82.1 | -0.124 | inactive |
| ZNF581 | 2 | 0.0135 | 82.2 | -0.273 | inactive |
| ZNF581 | 3 | 0.0588 | 83.1 | -0.237 | inactive |

The list goes on; the last 2 above are carried over.
| gene | siRNA no. | total luciferase, z-score | total luciferase, % of control | luciferase per cell, z-score | Call |
| --- | --- | --- | --- | --- | --- |
| ZNF581 | 2 | 0.0135 | 82.2 | -0.273 | inactive |
| ZNF581 | 3 | 0.0588 | 83.1 | -0.237 | inactive |
| DTHD1 | 1 | 0.71 | 96 | 0.634 | inactive |
| DTHD1 | 2 | -2.59 | 30.4 | -2.67 | inactive |
| DTHD1 | 3 | -2.84 | 25.4 | -2.23 | inactive |
| IMP4 | 1 | -0.958 | 62.8 | -0.221 | inactive |
| IMP4 | 2 | -2.58 | 30.6 | -3.12 | inactive |
| IMP4 | 3 | -1.83 | 45.5 | -1.28 | inactive |
| UXT | 1 | -0.459 | 72.8 | -0.633 | inactive |
| UXT | 2 | -0.622 | 69.5 | -0.21 | inactive |
| UXT | 3 | 0.394 | 89.7 | 0.11 | inactive |
| FAM3D | 1 | 0.0687 | 83.3 | 0.362 | inactive |
| FAM3D | 2 | -0.079 | 80.3 | 0.392 | inactive |
| FAM3D | 3 | -1.47 | 52.7 | -1.81 | inactive |
| RXFP2 | 1 | -1.09 | 60.2 | -0.402 | inactive |
| RXFP2 | 2 | 0.237 | 86.6 | 0.239 | inactive |
| RXFP2 | 3 | 2.2 | 126 | 1.27 | inactive |
| MUC17 | 1 | -0.922 | 63.6 | 0.804 | inactive |
| MUC17 | 2 | -0.967 | 62.6 | -1.11 | inactive |
| MUC17 | 3 | -0.339 | 75.2 | 0.0632 | inactive |
| BIVM | 1 | -1.24 | 57.2 | -0.481 | inactive |
| BIVM | 2 | -0.923 | 63.5 | -0.718 | inactive |
| BIVM | 3 | 0.324 | 88.3 | 0.14 | inactive |
| KAT5 | 1 | 5.98 | 201 | 4.39 | active |
| KAT5 | 2 | 0.806 | 97.9 | 0.594 | inactive |
| KAT5 | 3 | 3.65 | 155 | 3.35 | active |
